Out of some 31,000 sequences screened, about 1,400 (4.5%) were called active.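 The calls were made as follows: active = median seed-adjusted z-score above 1 or below -1; inactive = the rest.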 This is one part of the list.

The nature of the assay: Novel Modifiers of Survival Motor Neuron (SMN) Protein: Gene Identification via Genome-wide siRNA Screen.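 Also: luminescence tracks full-length SMN protein made from the SMN2 reporter.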 To be noted: HEK293T SMN2-luciferase reporter, siRNA knockdown, 72 h; actives lie on both sides. An outline of the steps:
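Steps: spot 1 pmol siRNA, add Lipofectamine RNAiMax in serum-free DMEM, seed HEK293T SMN2–luciferase reporter cells; incubate 72 h at 37 °C; add ONE-Glo; normalize luminescence to control siRNA, log10, MAD. Candidates: |MAD| > 1.0.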
Turning to GAAAGCCUAUUAUCAGCUUTT against DNAJA3, the median seed-adjusted z-score is inactive: -0.0333.

Consider GGACAUUUCAGUGAAAUGATT against ZNF345, for which the median seed-adjusted z-score is inactive: -0.275.

In the case of CGUGUAUACUCAAACACGATT against TGM6, the median seed-adjusted z-score was inactive: 0.0811.

On to GACUCAUCAUGAUACCAGUTT against APOF, for which the median seed-adjusted z-score was inactive: 0.0982.

For GCUCGAUGCUGAAACGCAUTT against ARID5B, the median seed-adjusted z-score is inactive: 0.

Take CGAACAUCUCAAACUUACATT against BHLHB2: the median seed-adjusted z-score is inactive: 0.

On to CAUCCCAGAUCAAACUGUATT against TFAP2A, for which the median seed-adjusted z-score is inactive: -0.384.

With GCUCUGAGGGAGUAUCGAATT against TROVE2, the median seed-adjusted z-score was inactive: 0.399.

Take AGUUGUUACUGACUAUGUUTT against SDHD: the median seed-adjusted z-score is inactive: -0.538.

For GGGUAUGUAUAGGUGCAAATT against ZNF407, the median seed-adjusted z-score is inactive: 0.00802.

AAGUUAGUUUUGAAGAAUUTT against S100G: the median seed-adjusted z-score is inactive: -0.809.

For GCGAGGCUGUUAACCCUUATT against PRKCQ, the median seed-adjusted z-score is inactive: 0.692.

Regarding AGAGACCCAUGGGAACAAATT against SIGMAR1, the median seed-adjusted z-score was active: -1.4.

Consider GGGACGACAUAUAUCUUUATT against NRXN1, for which the median seed-adjusted z-score was inactive: 0.433.

Consider CAUCGAUUUGAAGAAAAAUTT against DDI1, for which the median seed-adjusted z-score is inactive: 0.259.

In the case of AGCGACCUGUUGCACAUGATT against GALR2, the median seed-adjusted z-score is inactive: -0.0832.

For the sequence CACCAUAUGUUCCACGAUUTT against EPS8, the median seed-adjusted z-score was inactive: 0.

For the sequence CUAUGCUAGUCGUCCUGAATT against GALNT7, the median seed-adjusted z-score is inactive: -0.63.

For CGUGAAUACCUUUUAGACATT against GATAD2B, the median seed-adjusted z-score was inactive: 0.218.

For the sequence GGCAUUGAGUCAACUCCGATT against ZNF287, the median seed-adjusted z-score was inactive: 0.0213.

For GGAUCCUGGUGUUCAACAATT against BAI1, the median seed-adjusted z-score is inactive: -0.663.

As to GGACUAAAUCUACAAGUGATT against CACNG3, the median seed-adjusted z-score was inactive: -0.189.

Regarding GCAUCGCUGUAGGUUUUGATT against THBS2, the median seed-adjusted z-score was inactive: -0.721.

In the case of CACUUUUAUGAUAACCCAATT against LGR6, the median seed-adjusted z-score was inactive: 0.237.

Turning to GAACAACAGCAAAUCCGGUTT against PHF21A, the median seed-adjusted z-score was inactive: 0.179.

For the sequence GGACAGCUUUCUUCGGGAATT against SULF2, the median seed-adjusted z-score was inactive: -0.109.

With GGACACUGAAAUUCGCAUATT against ATP1B1, the median seed-adjusted z-score is inactive: 0.971.

In the case of CGGCUGGUUAUGUAACAAATT against QTRTD1, the median seed-adjusted z-score was inactive: 0.377.

As to CUGCAAUGCUGAUAUCGUATT against CNOT6, the median seed-adjusted z-score was inactive: 0.146.

Turning to GCUUGGUGAUGGUACUCCUTT against FCGR3A, the median seed-adjusted z-score was inactive: 0.0786.

For the sequence GGACUUCUGAAAAUUCGCATT against EP400, the median seed-adjusted z-score was active: 1.83.

Take GACCUUGAAUCAGAGAUUUTT against HHEX: the median seed-adjusted z-score is inactive: -0.428.

Regarding GAUUUAGGCAGACUGCAAATT against NT5C1B, the median seed-adjusted z-score was inactive: 0.0594.

Regarding GGUCUGUGCUCAAAGUCAUTT against SEMA3G, the median seed-adjusted z-score is inactive: 0.00615.

With AAACCUUAUCAAAACAAGATT against LECT2, the median seed-adjusted z-score is inactive: 0.0371.

Consider GCAGAAACCAUGUACAGGATT against RBPJL, for which the median seed-adjusted z-score was inactive: 0.373.

Consider GGACAACCUCGAAAUCUCATT against GMIP, for which the median seed-adjusted z-score is inactive: 0.0686.

Consider CUAUGGAUCUUUAGGAGUATT against HSPA12A, for which the median seed-adjusted z-score was inactive: 0.0319.

For GCUGCAUCGUAAGACAUUUTT against PCGF6, the median seed-adjusted z-score was inactive: 0.536.

Take CCAGAUACAUGAUCACGGATT against ACACB: the median seed-adjusted z-score is inactive: 0.31.

Regarding GGUCAAUAAUGAAAGUGGATT against AVEN, the median seed-adjusted z-score is inactive: 0.184.

In the case of GAUCAAACCUUUGUAGACATT against ZNF354C, the median seed-adjusted z-score is inactive: 0.648.

GGAUAUCAUGAUAUCAUCATT against ADAMTS1: the median seed-adjusted z-score was inactive: 0.173.

For GCAACAUGACGGGACUGGUTT against LRFN4, the median seed-adjusted z-score was inactive: -0.076.

On to CAAUGUCUUCGCAAUGUUUTT against MYL9, for which the median seed-adjusted z-score is inactive: 0.571.

With CCAUUAAGAAUGCUAAUAUTT against ABCB10, the median seed-adjusted z-score was inactive: -0.1.

Regarding CCGAGUAGCUGAAAUUGUUTT against BCL2L14, the median seed-adjusted z-score is inactive: -0.859.

ACACCUCUCUGAAACCUAUTT against CA1: the median seed-adjusted z-score is inactive: 0.262.

UGCUCUUCGUGGACCAGAATT against ZBTB17: the median seed-adjusted z-score was inactive: 0.0544.

Turning to GAAGGAGACUAAUGAGCAATT against FGD4, the median seed-adjusted z-score was inactive: -0.0017.

GGUUGAGGAAAGAGGCAAATT against ZBTB16: the median seed-adjusted z-score was inactive: 0.431.

Regarding GCAUAUUCCUAGACUAUGATT against TRIM39, the median seed-adjusted z-score is inactive: 0.41.

In the case of CAAUGAGGACUUUAAACAATT against HTR1B, the median seed-adjusted z-score is inactive: -0.221.

As for GAUUGACCGGUUCAGUAAATT against RAB7L1, the median seed-adjusted z-score was inactive: 0.243.

Take CAGUACUGCUGACACCCAATT against BAT2: the median seed-adjusted z-score was inactive: 0.0889.

GGAACAGUCAUGCUGGAUATT against SLC4A7: the median seed-adjusted z-score is inactive: 0.

GCAAGAGAAUUAAACUGCATT against RAB8A: the median seed-adjusted z-score was inactive: -0.0436.

As to GAUGGAGAAUAUUCCGUUUTT against MIF4GD, the median seed-adjusted z-score was inactive: 0.373.

UGAGAUUUCUGGUCAAGGATT against TRIM31: the median seed-adjusted z-score was inactive: -0.167.

Consider GGCUCGAACUUACACUGAATT against GTF3C2, for which the median seed-adjusted z-score was inactive: 0.32.

With CCACUGAUAGAUCACUUGATT against AADAC, the median seed-adjusted z-score is inactive: 0.0318.

Take CAACCUGCCGGAGUCUAGATT against OTX1: the median seed-adjusted z-score was inactive: -0.475.

Take GCACUACAGUUCGUAAGGATT against PPP3CC: the median seed-adjusted z-score was inactive: 0.271.

For GAUCCAAAGGAAUAUGCUATT against GC, the median seed-adjusted z-score is inactive: 0.14.

As for ACACCAAGAUGAUAAUUGATT against GPKOW, the median seed-adjusted z-score was inactive: -0.239.

GAAUAUUGCGAUGCCGAAATT against GPR65: the median seed-adjusted z-score is inactive: -0.766.

In the case of GGACUAUUCAGCAACAAAATT against PARP9, the median seed-adjusted z-score is inactive: -0.526.

On to GGACAGUCUUGGAUCAGCATT against PDE6B, for which the median seed-adjusted z-score was inactive: -0.336.

For CAUAAUCGAUGCUAUUGUATT against PARP15, the median seed-adjusted z-score was inactive: -0.332.

For the sequence GCAUUUAUCUGAGCACAGATT against ZNF673, the median seed-adjusted z-score is inactive: 0.419.

GAACUGUGGUGUCUUGGUATT against DUSP6: the median seed-adjusted z-score is inactive: 0.

Turning to ACUUUUAUGUUAGACAAGATT against METTL6, the median seed-adjusted z-score is inactive: -0.415.

GCAAUUCUCCGGUUAGAAATT against LSM4: the median seed-adjusted z-score is inactive: -0.679.

In the case of GAAUCGGAAUGUCAGUUAATT against TCEA1, the median seed-adjusted z-score is inactive: 0.

On to GGCCCUUGGCCUUACUAUGTT against ACSM2B, for which the median seed-adjusted z-score was inactive: -0.0401.

Regarding GCCUACUGGUCAUUGAUCATT against GNMT, the median seed-adjusted z-score is inactive: 0.0261.

For CAGUCGUUUCAGUUACUUATT against ZNF44, the median seed-adjusted z-score was inactive: 0.349.

Turning to CAAUACUCUCCUAAAAUAATT against TYROBP, the median seed-adjusted z-score is inactive: 0.249.

For GGAAACCAGUGGAUAUUAATT against F11, the median seed-adjusted z-score was inactive: -0.0319.

On to GCUAUGUUUUGAUGACGAATT against ZNF425, for which the median seed-adjusted z-score is inactive: 0.0841.

In the case of GGCUAAGGGCAUUACGUAUTT against DDX41, the median seed-adjusted z-score is inactive: -0.611.

Consider CCUACAACAGUACAAGUUATT against CORIN, for which the median seed-adjusted z-score is inactive: -0.0274.

For the sequence ACAUUUCUCAAAUAUGGAATT against NKX2-2, the median seed-adjusted z-score is inactive: -0.0805.

Regarding GCAGAGAAGUCCCAACUAATT against FLOT1, the median seed-adjusted z-score was inactive: -0.685.

Take GAGUCGGAGUCGAAGUAGATT against NKTR: the median seed-adjusted z-score is active: -1.1.

Take AGAGCAACAUCAACAUUAUTT against TKTL1: the median seed-adjusted z-score is inactive: -0.495.

Regarding GCCUUCUCCCUAUUUGAUATT against CALM1, the median seed-adjusted z-score was inactive: 0.355.

With GCAAACCAGAAGUAACAGATT against BAAT, the median seed-adjusted z-score was inactive: 0.641.

On to GGAAUCAGAUUAUUCAGGATT against TYMS, for which the median seed-adjusted z-score is inactive: -0.6.

On to CCAUCGAGAUGCUUCGAGUTT against HAS3, for which the median seed-adjusted z-score was inactive: -0.179.

For the sequence CUGACAGUGUGGUAUUCUATT against PRDM13, the median seed-adjusted z-score was inactive: 0.

GAUCGUUGCAAAGUUCUUATT against CPSF6: the median seed-adjusted z-score is active: -2.38.

Regarding CCUUUGCACUACUUCGACATT against ST3GAL5, the median seed-adjusted z-score was inactive: 0.11.

Take GCAUGCCCAUGAACAAAAATT against B3GNT1: the median seed-adjusted z-score is inactive: 0.0931.

Consider GGAUCUUGAAUUCAACUAUTT against TLR8, for which the median seed-adjusted z-score is inactive: 0.

Regarding GCCUUUAAUGGAUCCUCAATT against ZNF681, the median seed-adjusted z-score was inactive: 0.271.

As to GGAAAACAAUCUUAAGAAATT against ATOH7, the median seed-adjusted z-score is inactive: 0.135.

For the sequence GGACAAGAACGGAAUUUCATT against SCLY, the median seed-adjusted z-score was inactive: 0.00396.

With GAGCUUCAGUUUUACCGAATT against REXO2, the median seed-adjusted z-score was inactive: -0.0419.

With GCAGUAUCAGAAAACGGAATT against ZNF567, the median seed-adjusted z-score was inactive: -0.114.

Turning to AGCUGAAAAUUGAGAACAATT against TBX4, the median seed-adjusted z-score is inactive: 0.968.

Consider GCACUCGACUUGUACUAAATT against KCTD4, for which the median seed-adjusted z-score is inactive: 0.649.

For the sequence GGACAAGAAGCAAAUGACATT against OLIG2, the median seed-adjusted z-score is inactive: 0.00944.

For the sequence CGUCAACUCAUAAUAUGGATT against EIF5A, the median seed-adjusted z-score is inactive: 0.00397.

As for GAGACUGCACAACACGAUATT against TMEM11, the median seed-adjusted z-score is inactive: -0.00121.

In the case of GGUGUAAGAGAGCUACUAATT against IFIH1, the median seed-adjusted z-score was inactive: 0.419.

Turning to CAACAGACAAGGCACCUAATT against MYLK2, the median seed-adjusted z-score was inactive: -0.0498.
